# Measured values reported in publication PMC4895818.
# Results are given in words; binding and its absence hold for the method and conditions named. In cells and extracts the contact can be indirect. These calls come from enrichment with a bait or labelling near it, and not all partners need be listed. Where a sequence is shown, tags or fusion partners need not be part of it.
# Target: T1, GFP-PsAvh262 (N-terminal GFP-tagged PsAvh262 without the N-terminal secretion signal peptide 1-18 aa) (Phytophthora sojae) (UniProt E0W5H5)
# T1 sequence: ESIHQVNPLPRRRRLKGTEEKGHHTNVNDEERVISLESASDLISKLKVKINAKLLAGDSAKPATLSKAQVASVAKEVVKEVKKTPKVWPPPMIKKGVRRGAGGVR
# Assay: affinity purification with mass spectrometry; GFP-PsAvh262 expressed in N. benthamiana leaves; 5 ml total protein extract with 30 ul GFP-Trap_A beads, 4 °C, 3 h; lysis buffer 10 mM Tris-Cl pH 7.5, 150 mM NaCl, 0.5 mM EDTA, 0.5% NP-40; LC-MS/MS against N. tabacum sequences
substance,measurement,value
NbBiP5 (PsAvh262-associated N. benthamiana ER-luminal binding immunoglobulin protein),binding,binds
